Test results: patent US8637679B2, “Process for the isolation of organic compounds useful for the treatment of cancer” (Council of Scientific and Industrial Research, priority 2011, dated 2014)
Where two headings read alike, the source gives them in different places. For part of these data: At least one structure is not confirmed: it was looked up by name or label, or the drawing left a doubt. Some of these results come from one statement about several compounds together.

Experiments:
glioblastoma multiforme = details: cited from earlier work
[1] = In vivo bioavailability after oral feeding; details: Balb/c mice, serum HPLC
Description: EtOAc extract of Murraya koenigii was orally feeded to normal healthy Balb/c (100 mg/kg body weight) and blood was collected from retro orbital plexus after 30 min interval by glass capillary. Control blood was collected from the mice before the […] of extract. The Institutional Animal Ethical Committee had approved the study. Blood serum was isolated and the serum protein was separated by centrifugation in ice-cold acetone. Supernatant was evaporated to dryness and residual part was dissolved in minimum volume of MeOH and injected into the HPLC column.

[2] = adjuvant and concomitant with radiation
[3] = patients with MGMT promoter methylation
[4] = patients without MGMT promoter methylation

Row | Compound | likelihood of being alive in 2 years (glioblastoma multiforme; [2]) [%] | median progression-free survival (glioblastoma multiforme; [2]) [month] | overall survival (glioblastoma multiforme; [2]) [month] | 2-year survival rate (glioblastoma multiforme; [3]) [%] | median survival (glioblastoma multiforme; [3]) [months] | 2-year survival rate (glioblastoma multiforme; [4]) [%] | median survival (glioblastoma multiforme; [4]) [months] | time to appearance in blood circulation after oral administration [1] [min] | time to appearance in blood circulation after oral administration ([1]; listed as mahanine) [min]
1 | Cn1nnc2c(C(N)=O)ncn2c1=O [temozolomide] | 26 | 6.9 | 14.6 | 46 | 21.7 | 13.8 | 12.7 | – | –
2 | CC(C)=CCCC1(C)C=Cc2c(c(C)cc3c2[nH]c2cc(O)ccc23)O1 (stereo not drawn) [Mahanine, mahanine] | – | – | – | – | – | – | – | 30 to 45 | ≤ 30
